We go through one molecule from paper PMC8946178.

Results are given in words; binding and its absence hold for the method and conditions named. In cells and extracts the contact can be indirect. Binding can be weak; no strength is given. Tags and fused reporters may be left off the sequences shown.

This assay has as its target Flag-HSP70. Nature of the assay: co-IP; Flag-HSP70 and HA-KANK2 co-expressed in HEK 293T cells; RIPA lysate; anti-Flag M2 beads overnight at 4 °C; Western blot.

B1: HA-KANK2 (protein, UniProt Q63ZY3 1-851)
chain: MAQVLHVPAPFPGTPGPASPPAFPAKDPDPPYSVETPYGYRLDLDFLKYVDDIEKGHTLRRVAVQRRPRLSSLPRGPGSWWTSTESLCSNASGDSRHSAYSYCGRGFYPQYGALETRGGFNPRVERTLLDARRRLEDQAATPTGLGSLTPSAAGSTASLVGVGLPPPTPRSSGLSTPVPPSAGHLAHVREQMAGALRKLRQLEEQVKLIPVLQVKLSVLQEEKRQLTVQLKSQKFLGHPTAGRGRSELCLDLPDPPEDPVALETRSVGTWVRERDLGMPDGEAALAAKVAVLETQLKKALQELQAAQARQADPQPQAWPPPDSPVRVDTVRVVEGPREVEVVASTAAGAPAQRAQSLEPYGTGLRALAMPGRPESPPVFRSQEVVETMCPVPAAATSNVHMVKKISITERSCDGAAGLPEVPAESSSSPPGSEVASLTQPEKSTGRVPTQEPTHREPTRQAASQESEEAGGTGGPPAGVRSIMKRKEEVADPTAHRRSLQFVGVNGGYESSSEDSSTAENISDNDSTENEAPEPRERVPSVAEAPQLRPAGTAAAKTSRQECQLSRESQHIPTAEGASGSNTEEEIRMELSPDLISACLALEKYLDNPNALTERELKVAYTTVLQEWLRLACRSDAHPELVRRHLVTFRAMSARLLDYVVNIADSNGNTALHYSVSHANFPVVQQLLDSGVCKVDKQNRAGYSPIMLTALATLKTQDDIETVLQLFRLGNINAKASQAGQTALMLAVSHGRVDVVKALLACEADVNVQDDDGSTALMCACEHGHKEIAGLLLAVPSCDISLTDRDGSTALMVALDAGQSEIASMLYSRMNIKCSFAPMSDDESPTSSSAEE
With B1, the binding entry is on record as “binds”.
